Test results from patent US20030078381A1 (VANDERBILT UNIVERSITY, published 2003).
These are yes or no findings as the source states them, for the method shown. Some binding calls cover weakened binding; strength is not graded here. Tags and fused reporters may be left off the sequences shown.

Legend:
[1] = molecular target: T1, human IL-20R2, expressed alone on transfected cells (human) (UniProt Q6UXL0); assay: in situ cell surface AP staining of transfected Cos cells
T1 sequence (looked up): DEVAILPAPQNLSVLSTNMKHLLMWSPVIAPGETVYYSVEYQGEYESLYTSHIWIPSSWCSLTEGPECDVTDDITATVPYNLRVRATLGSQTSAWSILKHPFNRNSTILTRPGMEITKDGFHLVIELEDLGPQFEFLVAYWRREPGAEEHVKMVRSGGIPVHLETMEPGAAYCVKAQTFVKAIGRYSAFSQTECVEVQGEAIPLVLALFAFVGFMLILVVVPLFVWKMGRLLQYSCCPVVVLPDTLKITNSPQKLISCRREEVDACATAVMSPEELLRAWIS

[2] = molecular target: T1, human IL-20R2, expressed alone on transfected cells (human); assay: quantitative cell surface AP binding assay on transfected Cos cells
[3] = molecular target: T1, human IL-20R2, expressed alone on transfected cells (human); assay: in situ cell surface AP staining of transfected Cos-E5 cells (FIG. 3C)
[4] = molecular target: T1, human IL-20R2, expressed alone on transfected cells (human); assay: quantitative cell surface AP binding assay on transfected Cos-E5 cells (FIG. 3B)
[5] = molecular target: T1, human IL-20R2, expressed alone on transfected cells (human); assay: cell surface AP binding studies on transfected Cos cells
[6] = molecular target: T2, IL-20 receptor (IL-20R1/IL-20R2) heterodimeric receptor on co-transfected cells (human) (UniProt Q6UXL0); assay: as above
T2 sequence 1: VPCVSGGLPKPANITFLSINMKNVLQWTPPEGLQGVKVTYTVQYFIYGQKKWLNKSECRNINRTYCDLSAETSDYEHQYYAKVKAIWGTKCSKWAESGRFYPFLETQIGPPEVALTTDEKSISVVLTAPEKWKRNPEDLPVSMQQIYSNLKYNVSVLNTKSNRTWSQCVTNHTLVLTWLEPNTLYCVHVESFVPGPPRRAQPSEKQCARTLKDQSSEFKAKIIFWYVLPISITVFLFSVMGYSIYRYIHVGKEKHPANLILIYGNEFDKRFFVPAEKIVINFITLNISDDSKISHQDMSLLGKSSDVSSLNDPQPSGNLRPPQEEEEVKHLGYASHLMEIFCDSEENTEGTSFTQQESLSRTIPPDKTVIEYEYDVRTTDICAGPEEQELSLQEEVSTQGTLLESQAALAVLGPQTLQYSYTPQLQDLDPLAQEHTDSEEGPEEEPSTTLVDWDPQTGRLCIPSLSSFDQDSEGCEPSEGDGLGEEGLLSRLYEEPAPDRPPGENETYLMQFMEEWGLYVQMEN
T2 sequence 2: T1 sequence (looked up)

[7] = molecular target: T3, IL-22R1/IL-20R2 heterodimeric receptor on co-transfected cells (human) (UniProt Q6UXL0); assay: as above
T3 sequence 1: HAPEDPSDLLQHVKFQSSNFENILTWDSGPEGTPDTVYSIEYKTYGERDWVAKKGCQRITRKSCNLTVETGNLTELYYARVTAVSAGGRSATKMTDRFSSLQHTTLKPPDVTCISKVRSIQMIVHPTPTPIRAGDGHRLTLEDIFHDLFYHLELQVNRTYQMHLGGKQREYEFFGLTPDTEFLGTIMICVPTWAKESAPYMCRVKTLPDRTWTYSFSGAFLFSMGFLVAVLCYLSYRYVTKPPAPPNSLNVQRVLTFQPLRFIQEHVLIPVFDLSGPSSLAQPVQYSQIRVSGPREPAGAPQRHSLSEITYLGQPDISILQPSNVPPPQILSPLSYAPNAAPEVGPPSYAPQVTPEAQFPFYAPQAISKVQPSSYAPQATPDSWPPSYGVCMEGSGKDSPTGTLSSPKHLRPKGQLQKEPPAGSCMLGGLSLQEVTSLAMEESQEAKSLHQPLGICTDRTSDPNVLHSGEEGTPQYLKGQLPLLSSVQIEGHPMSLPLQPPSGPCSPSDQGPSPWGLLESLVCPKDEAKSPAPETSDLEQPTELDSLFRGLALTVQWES
T3 sequence 2: T1 sequence (looked up)

Measured: binding

B1: human IL-24-AP fusion protein (ligand, UniProt Q13007 52-206, looked up)
chain: QEFHFGPCQVKGVVPQKLWEAFWAVKDTMQAQDNITSARLLQQEVLQNVSDAESCYLVHTLLEFYLKTVFKNYHNRTVEVRTLKSFSTLANNFVLIVSQLQPSQENEMFSIRDSAHRRFLLFRRAFKQLDVEAALTKALGEVDILLTWMQKFYKL
notes: Used as conditioned medium; also called Mob-5-alkaline phosphatase fusion protein; not shown: secreted human placental alkaline phosphatase (AP)
binds: [1] | [2] | [3] | [4]

B2: Mob-5-AP (rat Mob-5 fused to alkaline phosphatase) (ligand, UniProt Q9JI24 29-183, looked up, not shown: large carriers)
chain: QEFRFGPCQVTGVVLPELWEAFWTVKNTVKTQDELTSVRLLKPQVLQNVSDAESCYLAHSLLKFYLNTVFKNYHSKIVKFKVLKSFSTLANNFLVIMSKLQPSKDNAMLPISDSARRRFLLYHRTFKQLDIEVALAKAFGEVDILLAWMQNFYQL
binds: [5] | [6] | [7]
